No constants are given. Whether binding was seen depends on the method and setting. In cells and extracts the contact can be indirect. For some assays here: A result given as binding can be weak or reduced; the word gives no strength. Where a sequence is shown, tags or fusion partners need not be part of it.

Experiment [1] concerns the target T1, Flag-tagged Rab23 (control protein) (UniProt Q9ULC3).
T1 sequence: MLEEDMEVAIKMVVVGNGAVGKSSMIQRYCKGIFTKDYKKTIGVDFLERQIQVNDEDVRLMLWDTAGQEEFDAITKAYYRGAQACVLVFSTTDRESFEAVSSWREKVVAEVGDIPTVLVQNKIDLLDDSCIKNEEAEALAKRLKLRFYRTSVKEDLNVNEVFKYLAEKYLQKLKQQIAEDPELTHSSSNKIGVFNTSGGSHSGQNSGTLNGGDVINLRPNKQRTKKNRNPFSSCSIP
The experiment can be described thus: co-IP; HEK293T cells co-transfected with Flag- and V5-tagged proteins; lysis in IP buffer (1% Triton-X 100, 20 mM Tris pH 7.5, 50 mM NaCl); anti-FLAG M2 affinity beads, 4°C; blot with anti-V5.

The target in experiment [2] is T2, Flag-tagged C. elegans RHEB-1 (C. elegans) (UniProt P34443).
T2 sequence: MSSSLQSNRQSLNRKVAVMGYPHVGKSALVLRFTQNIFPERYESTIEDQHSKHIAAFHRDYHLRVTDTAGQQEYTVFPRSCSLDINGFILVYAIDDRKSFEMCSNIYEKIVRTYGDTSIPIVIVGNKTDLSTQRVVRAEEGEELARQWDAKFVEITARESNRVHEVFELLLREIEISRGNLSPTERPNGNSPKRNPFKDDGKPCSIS
The description is as above.

Turning to V5-tagged C. elegans CGEF-1, the binding result in experiment [1] is given as “no binding”; in experiment [2] it was “binds”.

The record behind these values is paper PMC5839386.
